No constants are given. Whether binding was seen depends on the method and setting. Binding seen in cells or lysates may run through a third protein. Some binding calls cover weakened binding; strength is not graded here.

Protein sequences, listed by entry. Tags and fused reporters are not part of them. Residues count along the entry.
UniProt O08722, residues 27-945: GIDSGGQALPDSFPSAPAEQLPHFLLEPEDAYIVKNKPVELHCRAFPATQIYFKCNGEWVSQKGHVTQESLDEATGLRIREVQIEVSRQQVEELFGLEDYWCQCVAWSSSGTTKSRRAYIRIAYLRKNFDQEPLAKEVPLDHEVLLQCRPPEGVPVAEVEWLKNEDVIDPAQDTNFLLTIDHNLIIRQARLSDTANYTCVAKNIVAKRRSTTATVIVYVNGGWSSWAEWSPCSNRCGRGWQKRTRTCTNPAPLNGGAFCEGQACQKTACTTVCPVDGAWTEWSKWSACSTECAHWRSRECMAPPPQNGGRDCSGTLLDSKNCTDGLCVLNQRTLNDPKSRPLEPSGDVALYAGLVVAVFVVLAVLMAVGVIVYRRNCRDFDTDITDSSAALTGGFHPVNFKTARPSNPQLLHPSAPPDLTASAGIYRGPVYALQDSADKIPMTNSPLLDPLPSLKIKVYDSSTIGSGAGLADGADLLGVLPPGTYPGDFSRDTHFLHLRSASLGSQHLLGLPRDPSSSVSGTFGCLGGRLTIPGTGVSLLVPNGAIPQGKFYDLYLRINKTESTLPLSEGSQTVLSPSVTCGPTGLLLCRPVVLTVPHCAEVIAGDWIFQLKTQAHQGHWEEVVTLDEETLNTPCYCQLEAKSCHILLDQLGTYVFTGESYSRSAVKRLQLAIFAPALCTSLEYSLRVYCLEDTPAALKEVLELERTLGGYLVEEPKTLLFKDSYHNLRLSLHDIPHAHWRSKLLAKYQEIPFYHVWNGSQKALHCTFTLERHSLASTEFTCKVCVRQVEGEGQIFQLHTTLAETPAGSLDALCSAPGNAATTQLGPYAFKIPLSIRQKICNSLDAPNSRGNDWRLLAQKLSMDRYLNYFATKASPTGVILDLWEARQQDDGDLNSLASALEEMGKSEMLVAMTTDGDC

The values that follow come from patent US20240287178A1.

The target in this assay is T1, Claudin5 in porcine aortic endothelial cells (PAECs) (Sus scrofa) (UniProt C3VML1).
T1 sequence: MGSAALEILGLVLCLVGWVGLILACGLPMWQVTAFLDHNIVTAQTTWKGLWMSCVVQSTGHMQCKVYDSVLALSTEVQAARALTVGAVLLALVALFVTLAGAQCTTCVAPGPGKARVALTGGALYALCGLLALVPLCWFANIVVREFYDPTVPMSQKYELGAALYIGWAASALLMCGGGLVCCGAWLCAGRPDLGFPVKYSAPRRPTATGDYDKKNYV
Put plainly: co-immunoprecipitation from PAECs transfected with rat Unc5B-GFP.

Consider “rat Unc5B coupled to GFP, in transfected porcine aortic endothelial cells (PAECs) (from UniProt O08722 27-945) (receptor)”, for which the binding result is recorded as “binds”.
